Data as given in US20230203178A1 (SICHUAN KELUN BIOTECH BIOPHARMACEUTICAL, published 2023).

Molecular target: T1, human BCMA (antigen) (human, UniProt Q02223 1-54, limits assumed)
T1 construct: Antigen coupled to the CM5 chip in SPR; also called B-cell maturation antigen; TNFRF17
T1 sequence (looked up): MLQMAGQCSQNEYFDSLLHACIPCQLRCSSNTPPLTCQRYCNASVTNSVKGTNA
Assay: flow cytometry of lentivirus-transduced T cells labelled with antigen, 48 h after transduction; percent positive cells
Description: The nucleic acid sequence encoding the CAR was expressed under the drive of a promoter, therefore the lentivirus-transfected T cells could be labeled with an antigen or anti-CD19 antibody and measured by flow cytometry, to reflect the expression level of the CAR on the surface of the T cells.

Positive rate of binding to BCMA: 1.01%
B1: FMC63 CAR (other)
chain: DIQMTQTTSSLSASLGDRVTISCRASQDISKYLNWYQQKPDGTVKLLIYHTSRLHSGVPSRFSGSGSGTDYSLTISNLEQEDIATYFCQQGNTLPYTFGGGTKLEITGGGGSGGGGSGGGGSEVKLQESGPGLVAPSQSLSVTCTVSGVSLPDYGVSWIRQPPRKGLEWLGVIWGSETTYYNSALKSRLTIIKDNSKSQVFLKMNSLQTDDTAIYYCAKHYYYGGSYAMDYWGQGTSVTVSSTTTPAPRPPTPAPTIASQPLSLRPEACRPAAGGAVHTRGLDFACDIYIWAPLAGTCGVLLLSLVITLYCKRGRKKLLYIFKQPFMRPVQTTQEEDGCSCRFPEEEEGGCELRVKFSRSADAPAYKQGQNQLYNELNLGRREEYDVLDKRRGRDPEMGGKPRRKNPQEGLYNELQKDKMAEAYSEIGMKGERRRGKGHDGLYQGLSTATKDTYDALHMQALPPR
notes: Chimeric antigen receptor on human T cells; built here from its parts without the signal peptide; also called FMC63 CAR-T
